13 substances from US20210179666A1 (Regents of the University of Minnesota, priority 2019, published 2021) can be followed below.

Some peptides are written in HELM: one residue between dots, names in brackets for other building blocks, links after the first $. Square brackets hold non-standard residues; d marks the D form. Dap = NC[C@H](N)C(=O)O Where only a bound is given, the exact number is not on record here.

This data set is described as follows: general procedure: Fmoc solid-phase peptide synthesis; H-Pro-2-chlorotrityl resin (0.67 to 0.76 mequiv/g); HBTU/DIEA (HATU double coupling after NPhe in MDE9-88c and MDE9-93c); cyclisatio. The settings on record: whole synthesis, 214 nm.

As for “PEPTIDE1{P.R.F.F.N.A.[NPhe].[dP]}$PEPTIDE1,PEPTIDE1,1:R1-8:R2$$$V2.0”, the “final HPLC purity” value is reported as more than 99%.

Turning to “PEPTIDE1{P.R.F.F.[Dap].A.[NPhe].[dP]}$PEPTIDE1,PEPTIDE1,1:R1-8:R2$$$V2.0”, the “final HPLC purity” value was more than 99%. Then “PEPTIDE1{P.R.F.F.[Dap].[NAla].F.[dP]}$PEPTIDE1,PEPTIDE1,1:R1-8:R2$$$V2.0”, with more than 99%; and “PEPTIDE1{P.[NArg].F.F.[Dap].A.F.[dP]}$PEPTIDE1,PEPTIDE1,1:R1-8:R2$$$V2.0”, with more than 96%; and c[Pro-Arg-Phe-Phe-Dap-Ala-PheDPro], with more than 98%. Then c[Pro-Arg-Phe-Phe-Dap-Val-Phe-DPro], with more than 95%; and cyclo(PCFFNAF[dP]), with more than 97%. Regarding cyclo(PCFF[Dap]AF[dP]), the “final HPLC purity” value is on record as more than 95%.

cyclo(PHFFNAF[dP]): the “final HPLC purity” value is reported as more than 98%. Turning to cyclo(PHFF[Dap]AF[dP]), the “final HPLC purity” value is given as more than 95%. For cyclo(PRFFNVF[dP]), the “final HPLC purity” value is reported as more than 98%. Turning to cyclo(PRYFNAF[dP]), the “final HPLC purity” value was more than 99%. For cyclo(PRYF[Dap]AF[dP]), the “final HPLC purity” value is given as more than 98%.
